Assay results: ChEMBL document CHEMBL5674883, “The Heterochromatin Landscape in Migrating Cells and the Importance of H3K27me3 for Associated Transcriptome Alterations” (Cells, 2018)
Further values from the same series stand in other lists.

Protein sequences, listed by entry. Tags and fused reporters are not part of them.
UniProt Q61188, whole entry: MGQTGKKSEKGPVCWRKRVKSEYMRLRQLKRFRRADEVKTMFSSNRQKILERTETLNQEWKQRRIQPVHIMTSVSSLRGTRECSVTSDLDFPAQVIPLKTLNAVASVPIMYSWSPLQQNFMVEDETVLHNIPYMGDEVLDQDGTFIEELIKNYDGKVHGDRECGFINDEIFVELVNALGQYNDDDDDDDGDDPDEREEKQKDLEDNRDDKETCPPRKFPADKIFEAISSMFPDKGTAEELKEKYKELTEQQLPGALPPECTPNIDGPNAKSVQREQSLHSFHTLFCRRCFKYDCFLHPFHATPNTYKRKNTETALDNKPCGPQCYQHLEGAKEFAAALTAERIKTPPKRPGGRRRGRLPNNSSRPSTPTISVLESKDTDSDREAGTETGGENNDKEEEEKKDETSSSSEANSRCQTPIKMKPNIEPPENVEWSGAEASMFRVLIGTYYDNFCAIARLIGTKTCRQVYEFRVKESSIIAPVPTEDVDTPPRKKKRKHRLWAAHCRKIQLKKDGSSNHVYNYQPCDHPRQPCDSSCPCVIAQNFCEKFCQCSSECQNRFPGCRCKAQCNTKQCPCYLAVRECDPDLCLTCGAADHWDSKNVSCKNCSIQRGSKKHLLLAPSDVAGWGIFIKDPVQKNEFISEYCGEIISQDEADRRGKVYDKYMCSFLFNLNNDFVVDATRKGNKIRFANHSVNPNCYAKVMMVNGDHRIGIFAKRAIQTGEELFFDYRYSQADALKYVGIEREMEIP

Tests used:
Assay type in all cases: cell-based
[1] = target: T1, RNA polymerase II (Mus musculus) (UniProt P08775+Q8CFI7+P97760+A0A3Q4L2S8+Q80UW8+P61219+P62488+Q923G2+P60898+O08740+Q63871+P62876); experiment: Inhibition of RNA polymerase II in mouse B16-F1 migrating cells assessed as fold change in Wbp4-RNA stability at 0.1 mM measured by ChIP-seq analysis relative to control cells
[2] = target: T1, RNA polymerase II (Mus musculus); experiment: Inhibition of RNA polymerase II in mouse B16-F1 migrating cells assessed as fold change in Shoc2-RNA stability at 0.1 mM measured by ChIP-seq analysis relative to control cells
[3] = target: T1, RNA polymerase II (Mus musculus); experiment: Inhibition of RNA polymerase II in mouse B16-F1 migrating cells assessed as fold change in Pign-RNA stability at 0.1 mM measured by ChIP-seq analysis relative to control cells
[4] = target: T1, RNA polymerase II (Mus musculus); experiment: Inhibition of RNA polymerase II in mouse B16-F1 migrating cells assessed as fold change in Stk3-RNA stability at 0.1 mM measured by ChIP-seq analysis relative to control cells
[5] = target: T1, RNA polymerase II (Mus musculus); experiment: Inhibition of RNA polymerase II in mouse B16-F1 migrating cells assessed as fold change in Nudt8-RNA stability at 0.1 mM measured by ChIP-seq analysis relative to control cells
[6] = target: T1, RNA polymerase II (Mus musculus); experiment: Inhibition of RNA polymerase II in mouse B16-F1 migrating cells assessed as fold change in Sox4-RNA stability at 0.1 mM measured by ChIP-seq analysis relative to control cells
[7] = target: T1, RNA polymerase II (Mus musculus); experiment: Inhibition of RNA polymerase II in mouse B16-F1 migrating cells assessed as fold change in Aspm-RNA stability at 0.1 mM measured by ChIP-seq analysis relative to control cells
[8] = target: T1, RNA polymerase II (Mus musculus); experiment: Inhibition of RNA polymerase II in mouse B16-F1 migrating cells assessed as fold change in Gpi1-RNA stability at 0.1 mM measured by ChIP-seq analysis relative to control cells
[9] = target: T1, RNA polymerase II (Mus musculus); experiment: Inhibition of RNA polymerase II in mouse B16-F1 migrating cells assessed as fold change in Ppfibp1-RNA stability at 0.1 mM measured by ChIP-seq analysis relative to control cells
[10] = target: T1, RNA polymerase II (Mus musculus); experiment: Inhibition of RNA polymerase II in mouse B16-F1 migrating cells assessed as fold change in Klhl21-RNA stability at 0.1 mM measured by ChIP-seq analysis relative to control cells
[11] = target: T1, RNA polymerase II (Mus musculus); experiment: Inhibition of RNA polymerase II in mouse B16-F1 migrating cells assessed as fold change in Cpne4-RNA stability at 0.1 mM measured by ChIP-seq analysis relative to control cells
[12] = target: T1, RNA polymerase II (Mus musculus); experiment: Inhibition of RNA polymerase II in mouse B16-F1 migrating cells assessed as fold change in Polr2i-RNA stability at 0.1 mM measured by ChIP-seq analysis relative to control cells
[13] = target: T1, RNA polymerase II (Mus musculus); experiment: Inhibition of RNA polymerase II in mouse B16-F1 migrating cells assessed as fold change in Cox6c-RNA stability at 0.1 mM measured by ChIP-seq analysis relative to control cells
[14] = target: T1, RNA polymerase II (Mus musculus); experiment: Inhibition of RNA polymerase II in mouse B16-F1 migrating cells assessed as fold change in Cggbp1-RNA stability at 0.1 mM measured by ChIP-seq analysis relative to control cells
[15] = target: T1, RNA polymerase II (Mus musculus); experiment: Inhibition of RNA polymerase II in mouse B16-F1 migrating cells assessed as fold change in Zfp472-RNA stability at 0.1 mM measured by ChIP-seq analysis relative to control cells
[16] = target: T1, RNA polymerase II (Mus musculus); experiment: Inhibition of RNA polymerase II in mouse B16-F1 migrating cells assessed as fold change in Dynlt3-RNA stability at 0.1 mM measured by ChIP-seq analysis relative to control cells
[17] = target: T1, RNA polymerase II (Mus musculus); experiment: Inhibition of RNA polymerase II in mouse B16-F1 migrating cells assessed as fold change in Apba3-RNA stability at 0.1 mM measured by ChIP-seq analysis relative to control cells
[18] = target: T1, RNA polymerase II (Mus musculus); experiment: Inhibition of RNA polymerase II in mouse B16-F1 migrating cells assessed as fold change in Zbtb6-RNA stability at 0.1 mM measured by ChIP-seq analysis relative to control cells
[19] = target: T1, RNA polymerase II (Mus musculus); experiment: Inhibition of RNA polymerase II in mouse B16-F1 migrating cells assessed as fold change in Lactb2-RNA stability at 0.1 mM measured by ChIP-seq analysis relative to control cells
[20] = target: T1, RNA polymerase II (Mus musculus); experiment: Inhibition of RNA polymerase II in mouse B16-F1 migrating cells assessed as fold change in Bnip1-RNA stability at 0.1 mM measured by ChIP-seq analysis relative to control cells
[21] = target: T1, RNA polymerase II (Mus musculus); experiment: Inhibition of RNA polymerase II in mouse B16-F1 migrating cells assessed as fold change in Morc2a-RNA stability at 0.1 mM measured by ChIP-seq analysis relative to control cells
[22] = target: T1, RNA polymerase II (Mus musculus); experiment: Inhibition of RNA polymerase II in mouse B16-F1 migrating cells assessed as fold change in Pdik1l-RNA stability at 0.1 mM measured by ChIP-seq analysis relative to control cells
[23] = target: T1, RNA polymerase II (Mus musculus); experiment: Inhibition of RNA polymerase II in mouse B16-F1 migrating cells assessed as fold change in Gtf3a-RNA stability at 0.1 mM measured by ChIP-seq analysis relative to control cells
[24] = target: Histone-lysine N-methyltransferase EZH2 (Mus musculus) (UniProt Q61188); experiment: Inhibition of EZH2 in mouse B16-F1 migrating cells assessed as fold change in H3K27me3-buffered regulated Cited2-mRNA expression at 3 uM measured by ChIP-seq analysis relative to control cells
[25] = target: Histone-lysine N-methyltransferase EZH2 (Mus musculus) (UniProt Q61188); experiment: Inhibition of EZH2 in mouse B16-F1 migrating cells assessed as fold change in H3K27me3-buffered regulated Igf2bp1-mRNA expression at 3 uM measured by ChIP-seq analysis relative to control cells
[26] = target: Histone-lysine N-methyltransferase EZH2 (Mus musculus) (UniProt Q61188); experiment: Inhibition of EZH2 in mouse B16-F1 migrating cells assessed as fold change in H3K27me3-buffered regulated Sik1-mRNA expression at 3 uM measured by ChIP-seq analysis relative to control cells
[27] = target: Histone-lysine N-methyltransferase EZH2 (Mus musculus) (UniProt Q61188); experiment: Inhibition of EZH2 in mouse B16-F1 migrating cells assessed as fold change in H3K27me3-buffered regulated Sgol2a-mRNA expression at 3 uM measured by ChIP-seq analysis relative to control cells
[28] = target: Histone-lysine N-methyltransferase EZH2 (Mus musculus) (UniProt Q61188); experiment: Inhibition of EZH2 in mouse B16-F1 migrating cells assessed as fold change in H3K27me3-buffered regulated Tgfb2-mRNA expression at 3 uM measured by ChIP-seq analysis relative to control cells
[29] = target: Histone-lysine N-methyltransferase EZH2 (Mus musculus) (UniProt Q61188); experiment: Inhibition of EZH2 in mouse B16-F1 migrating cells assessed as fold change in H3K27me3-buffered regulated Gm16316-mRNA expression at 3 uM measured by ChIP-seq analysis relative to control cells
[30] = target: Histone-lysine N-methyltransferase EZH2 (Mus musculus) (UniProt Q61188); experiment: Inhibition of EZH2 in mouse B16-F1 migrating cells assessed as fold change in H3K27me3-independent regulated Map2k3-mRNA expression at 3 uM measured by ChIP-seq analysis relative to control cells

Compound: OC[C@H]1O[C@@H](n2cnc3cc(Cl)c(Cl)cc32)[C@H](O)[C@@H]1O
- log2FC [1]: -0.69
- log2FC [2]: -0.7
- log2FC [3]: -0.54
- log2FC [4]: -0.48
- log2FC [5]: 0.58
- log2FC [6]: -0.67
- log2FC [7]: -0.57
- log2FC [8]: 0.67
- log2FC [9]: -0.41
- log2FC [10]: -0.65
- log2FC [11]: -0.55
- log2FC [12]: 0.52
- log2FC [13]: -0.65
- log2FC [14]: -0.41
- log2FC [15]: -0.81
- log2FC [16]: -0.87
- log2FC [17]: 0.47
- log2FC [18]: -0.83
- log2FC [19]: -0.53
- log2FC [20]: 0.51
- log2FC [21]: -0.42
- log2FC [22]: -0.82
- log2FC [23]: 0.45

Compound: CCCc1cc(C)[nH]c(=O)c1CNC(=O)c1cc(-c2ccnc(N3CCN(C)CC3)c2)cc2c1cnn2C(C)C
- log2FC [24]: -0.69
- log2FC [25]: -0.51
- log2FC [26]: 0.68
- log2FC [27]: -0.62
- log2FC [28]: -0.64
- log2FC [29]: 1.17
- log2FC [30]: 0.48
